Source: PubChem BioAssay (EPA / NIEHS)
The shares of active, inactive and inconclusive entries below differ from those in the screen. Potencies beside an inconclusive call are fits to weak or partial responses and may not hold up. Active and inactive are the calls of the source. How the source made its calls: active means hit-call score of the fitted dose curve at least 0.9, where 1 is the maximum; inconclusive means response in the unintended direction; inactive means score below 0.9.

Read-out: glucuronosyltransferase (UGT1A1), UGT1A1 (gene 54658)
Assay: CLD_UGT1A1_48hr: CellzDirect (CLD) Gene Expression Assay for glucuronosyltransferase (UGT1A1) at 48 hours (AID 2283709);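 further: actives increase expression relative to DMSO so potency refers to induction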
Procedure, shortened: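 Human primary hepatocytes dosed daily for two days (0.2% DMSO vehicle), harvested at 48 h. UGT1A1 mRNA induction measured by quantitative nuclease protection assay with chemiluminescence; gain of signal versus DMSO; cytotoxicity flagged from morphology.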

Row | Structure (SMILES) | outcome | AC50
1 | COC(=O)c1c(C(F)F)nc(C(F)(F)F)c(C2=NCCS2)c1CC(C)C | inactive | 
2 | CN(C)C(=S)SSC(=S)N(C)C |  | inconclusive: 20 µM
3 | N#Cc1c(Cl)c(Cl)c(Cl)c(C#N)c1Cl |  | inconclusive: 2 µM
4 | CC1(c2ccc(Oc3ccccc3)cc2)OC(=O)N(Nc2ccccc2)C1=O (centres undefined) |  | inconclusive: 35.3 µM
5 | [2H]C1([2H])[n+]2ccccc2-c2cccc[n+]2C1([2H])[2H] |  | inconclusive: 20 µM
6 | O=C(Nc1ccccc1-c1ccc(Cl)cc1)c1cccnc1Cl | inactive | 
7 | CNC(=O)ON=C(SC)C(=O)N(C)C | inactive | 
8 | CC1(C)C(C=C(Cl)Cl)C1C(=O)OC(C#N)c1cccc(Oc2ccccc2)c1 (centres undefined) |  | active: 6.03 µM
9 | CC[C@H](C)[C@H]1O[C@]2(C=C[C@@H]1C)C[C@@H]1C[C@@H](C/C=C(\C)[C@@H](O[C@H]3C[C@H](OC)[C@@H](O[C@H]4C[C@H](OC)[C@@H](NC)[C@H](C)O4)[C@H](C)O3)[C@@H](C)/C=C/C=C3\CO[C@@H]4[C@H](O)C(C)=C[C@@H](C(=O)O1)[C@]34O)O2 |  | inconclusive: 2 µM
10 | CC1(C)C(C(=O)OC(C#N)c2cccc(Oc3ccccc3)c2)C1(C)C (centres undefined) |  | active: 5.67 µM
11 | CCOc1nc(NC)nc(NC(=O)NS(=O)(=O)c2ccccc2C(=O)OC)n1 | inactive | 
12 | Cc1c(F)c(F)c(COC(=O)C2C(/C=C(\Cl)C(F)(F)F)C2(C)C)c(F)c1F (centres undefined) | inactive | 
13 | CCCN(CCOc1c(Cl)cc(Cl)cc1Cl)C(=O)n1ccnc1 |  | inconclusive: 32.9 µM
14 | COP(=O)(OC)OC(Br)C(Cl)(Cl)Br (centres undefined) | inactive | 
15 | CSC1=N[C@@](C)(c2ccccc2)C(=O)N1Nc1ccccc1 | inactive | 
16 | CCSC(=O)N1CCCCCC1 | inactive | 
17 | Cc1ccc(-c2c(Cl)nc(C#N)n2S(=O)(=O)N(C)C)cc1 |  | inconclusive: 20 µM
18 | CCc1nn(C)c(C(=O)NCc2ccc(C(C)(C)C)cc2)c1Cl |  | inconclusive: 1.89 µM
19 | O=C(Nc1ccccc1)Nc1cnns1 |  | active: 9.87 µM
20 | O=C1C2CC=CCC2C(=O)N1SC(Cl)(Cl)Cl (centres undefined) |  | inconclusive: 20 µM
21 | O=[N+]([O-])c1cc(C(F)(F)F)c(Cl)c([N+](=O)[O-])c1Nc1ncc(C(F)(F)F)cc1Cl |  | inconclusive: 2 µM
22 | Cn1c(-c2ccccc2)cc(-c2ccccc2)[n+]1C |  | inconclusive: 12.1 µM
23 | CC[C@H](C)[C@H]1O[C@]2(C=C[C@@H]1C)C[C@@H]1C[C@@H](C/C=C(\C)[C@@H](O[C@H]3C[C@H](OC)[C@@H](O[C@H]4C[C@H](OC)[C@@H](O)[C@H](C)O4)[C@H](C)O3)[C@@H](C)/C=C/C=C3\CO[C@@H]4[C@H](O)C(C)=C[C@@H](C(=O)O1)[C@]34O)O2 (tested in a mixture with another compound) |  | inconclusive: 2 µM
24 | CCCCNC(=O)OCC#CI |  | inconclusive: 20 µM
25 | CCc1ccc(C(=O)NN(C(=O)c2cc(C)cc(C)c2)C(C)(C)C)cc1 |  | active: 3.53 µM
26 | CCOP(=S)(Oc1cnc(C(C)(C)C)nc1)OC(C)C (centres undefined) |  | active: 0.439 µM
27 | CC(C)(C)C(O)/C(=C\c1ccc(Cl)cc1Cl)n1cncn1 (centres undefined) | inactive | 
28 | CCSC(=O)N(CC)C1CCCCC1 | inactive | 

Some of these compounds in order of molecular weight, ascending.
Row | Structure (SMILES) | outcome | AC50
16 | CCSC(=O)N1CCCCCC1 | inactive | 
5 | [2H]C1([2H])[n+]2ccccc2-c2cccc[n+]2C1([2H])[2H] |  | inconclusive: 20 µM
2 | CN(C)C(=S)SSC(=S)N(C)C |  | inconclusive: 20 µM
3 | N#Cc1c(Cl)c(Cl)c(Cl)c(C#N)c1Cl |  | inconclusive: 2 µM
24 | CCCCNC(=O)OCC#CI |  | inconclusive: 20 µM
27 | CC(C)(C)C(O)/C(=C\c1ccc(Cl)cc1Cl)n1cncn1 (centres undefined) | inactive | 
18 | CCc1nn(C)c(C(=O)NCc2ccc(C(C)(C)C)cc2)c1Cl |  | inconclusive: 1.89 µM
6 | O=C(Nc1ccccc1-c1ccc(Cl)cc1)c1cccnc1Cl | inactive | 
4 | CC1(c2ccc(Oc3ccccc3)cc2)OC(=O)N(Nc2ccccc2)C1=O (centres undefined) |  | inconclusive: 35.3 µM
8 | CC1(C)C(C=C(Cl)Cl)C1C(=O)OC(C#N)c1cccc(Oc2ccccc2)c1 (centres undefined) |  | active: 6.03 µM
12 | Cc1c(F)c(F)c(COC(=O)C2C(/C=C(\Cl)C(F)(F)F)C2(C)C)c(F)c1F (centres undefined) | inactive | 
21 | O=[N+]([O-])c1cc(C(F)(F)F)c(Cl)c([N+](=O)[O-])c1Nc1ncc(C(F)(F)F)cc1Cl |  | inconclusive: 2 µM
23 | CC[C@H](C)[C@H]1O[C@]2(C=C[C@@H]1C)C[C@@H]1C[C@@H](C/C=C(\C)[C@@H](O[C@H]3C[C@H](OC)[C@@H](O[C@H]4C[C@H](OC)[C@@H](O)[C@H](C)O4)[C@H](C)O3)[C@@H](C)/C=C/C=C3\CO[C@@H]4[C@H](O)C(C)=C[C@@H](C(=O)O1)[C@]34O)O2 (tested in a mixture with another compound) |  | inconclusive: 2 µM
9 | CC[C@H](C)[C@H]1O[C@]2(C=C[C@@H]1C)C[C@@H]1C[C@@H](C/C=C(\C)[C@@H](O[C@H]3C[C@H](OC)[C@@H](O[C@H]4C[C@H](OC)[C@@H](NC)[C@H](C)O4)[C@H](C)O3)[C@@H](C)/C=C/C=C3\CO[C@@H]4[C@H](O)C(C)=C[C@@H](C(=O)O1)[C@]34O)O2 |  | inconclusive: 2 µM

Read-out: sulfotransferase (SULT2A), SULT2A1 (gene 6822)
Assay: CLD_SULT2A_48hr: CellzDirect (CLD) Gene Expression Assay for sulfotransferase (SULT2A) at 48 hours (AID 2283710);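 further: hits raise SULT2A1 transcript above the 0.2% DMSO vehicle baseline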
Procedure, shortened: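 Primary human hepatocytes (two donor preparations) dosed daily for two days with chemicals at multiple concentrations, vehicle 0.2% DMSO; SULT2A1 mRNA induction at 48 h by quantitative nuclease protection assay, chemiluminescent read-out, fitted for gain of signal versus DMSO.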

Row | Structure (SMILES) | AC50 | outcome
29 | N#CC(CCc1ccc(Cl)cc1)(Cn1cncn1)c1ccccc1 (centres undefined) | active: 20 µM | 
30 | CNC(=O)Oc1cccc(N=CN(C)C)c1 | inconclusive: 20 µM | 
31 | COC(=O)c1c(C(F)F)nc(C(F)(F)F)c(C2=NCCS2)c1CC(C)C | active: 1.7 µM | 
32 | CN(C)C(=S)SSC(=S)N(C)C | inconclusive: 20 µM | 
33 | CC1(c2ccc(Oc3ccccc3)cc2)OC(=O)N(Nc2ccccc2)C1=O (centres undefined) | active: 1.89 µM | 
34 | [2H]C1([2H])[n+]2ccccc2-c2cccc[n+]2C1([2H])[2H] | inconclusive: 20 µM | 
35 | O=C1c2ccccc2C(=O)N1SC(Cl)(Cl)Cl | inconclusive: 0.0248 µM | 
36 | CNC(=O)ON=C(SC)C(=O)N(C)C | inconclusive: 20 µM | 
37 | CC(C)N1C(=O)N(c2ccccc2)CSC1=NC(C)(C)C | active: 33.1 µM | 
38 | CC[C@H](C)[C@H]1O[C@]2(C=C[C@@H]1C)C[C@@H]1C[C@@H](C/C=C(\C)[C@@H](O[C@H]3C[C@H](OC)[C@@H](O[C@H]4C[C@H](OC)[C@@H](NC)[C@H](C)O4)[C@H](C)O3)[C@@H](C)/C=C/C=C3\CO[C@@H]4[C@H](O)C(C)=C[C@@H](C(=O)O1)[C@]34O)O2 | active: 2 µM | 
39 | C=CCOC(=O)C(C)(C)OC(=O)c1cc(-n2c(=O)cc(C(F)(F)F)n(C)c2=O)ccc1Cl | inconclusive: 37.3 µM | 
40 | CCOc1nc(NC)nc(NC(=O)NS(=O)(=O)c2ccccc2C(=O)OC)n1 | inconclusive: 0.0004 µM | 
41 | Cc1c(F)c(F)c(COC(=O)C2C(/C=C(\Cl)C(F)(F)F)C2(C)C)c(F)c1F (centres undefined) |  | inactive
42 | CCCN(CCOc1c(Cl)cc(Cl)cc1Cl)C(=O)n1ccnc1 | inconclusive: 36.9 µM | 
43 | COP(=S)(OC)Oc1nc(Cl)c(Cl)cc1Cl | inconclusive: 20 µM | 
44 | CSC1=N[C@@](C)(c2ccccc2)C(=O)N1Nc1ccccc1 | inconclusive: 11.8 µM | 

Row | Structure (SMILES) | AC50 | outcome
45 | CCSC(=O)N1CCCCCC1 | inconclusive: 20 µM | 
46 | Cc1ccc(-c2c(Cl)nc(C#N)n2S(=O)(=O)N(C)C)cc1 | inconclusive: 20 µM | 
47 | CCc1nn(C)c(C(=O)NCc2ccc(C(C)(C)C)cc2)c1Cl | active: 20 µM | 
48 | CCCN(CCC)c1c([N+](=O)[O-])cc(C(F)(F)F)cc1[N+](=O)[O-] |  | inactive
49 | CNC(=O)N(C)c1nnc(C(C)(C)C)s1 | inconclusive: 1.9 µM | 
50 | O=C(Nc1ccccc1)Nc1cnns1 | active: 6.28 µM | 
51 | O=C1C2CC=CCC2C(=O)N1SC(Cl)(Cl)Cl (centres undefined) |  | inactive
52 | Cn1c(-c2ccccc2)cc(-c2ccccc2)[n+]1C |  | inactive
53 | CCOC(=O)C(C)OC(=O)c1cc(Oc2ccc(C(F)(F)F)cc2Cl)ccc1[N+](=O)[O-] (centres undefined) | active: 4.61 µM | 
54 | CNC(=O)Oc1cccc2c1OC(C)(C)O2 | inconclusive: 0.738 µM | 
55 | CC[C@H](C)[C@H]1O[C@]2(C=C[C@@H]1C)C[C@@H]1C[C@@H](C/C=C(\C)[C@@H](O[C@H]3C[C@H](OC)[C@@H](O[C@H]4C[C@H](OC)[C@@H](O)[C@H](C)O4)[C@H](C)O3)[C@@H](C)/C=C/C=C3\CO[C@@H]4[C@H](O)C(C)=C[C@@H](C(=O)O1)[C@]34O)O2 (tested in a mixture with another compound) | inconclusive: 2 µM | 
56 | CCCCNC(=O)OCC#CI | inconclusive: 20 µM | 
57 | CCOP(=S)(Oc1cnc(C(C)(C)C)nc1)OC(C)C (centres undefined) | inconclusive: 0.000161 µM | 
58 | CCSC(=O)N(CC)C1CCCCC1 |  | inactive
59 | CCCN(CCC)c1c([N+](=O)[O-])cc(S(N)(=O)=O)cc1[N+](=O)[O-] | active: 6.29 µM | 
